Results as given in patent US20200405659A1, “COMPOSITION CONTAINING 2,3-BUTANEDIOL AS ACTIVE INGREDIENT” (GS CALTEX CORPORATION, priority 2018, published 2020).

System: CCD-986SK cells
Experiment: Protein content of CCD-986SK cell dissolution material (BSA protein assay reagent kit)
Format: cell-based
Conditions: 48 hours

SMILES | Protein (0.50 wt % in serum-free medium) | Protein (0.05 wt % in serum-free medium) | Protein (0.10 wt % in serum-free medium) | Protein (1.00 wt % in serum-free medium)
CC(O)CCO (stereo not shown) [1,3-butanediol] | 203.25 µg/mL | – | – | –
OCCCO [1,3-propanediol] | 207.90 µg/mL | – | – | –
C[C@@H](O)[C@@H](C)O [2R,3R-butanediol] | 186.85 µg/mL | 201.41 µg/mL | 199.74 µg/mL | 168.73 µg/mL
C[C@H](O)[C@@H](C)O [2R,3S-butanediol] | 187.33 µg/mL | 199.83 µg/mL | 198.54 µg/mL | 165.90 µg/mL
